Some of these results come from one statement about several compounds together.
Test system: epilepsy model mice (intrahippocampal kainic acid)
Experiment: spontaneous recurrent seizures in kainic acid-induced epilepsy model mice, Racine scale accumulative scores
Type: in vivo, C57 mice
Conditions: after i.p. administration, YM022 100 nM, 10 μL, YF476 1 μM
Method: FIG. 1 is a series of line plots depicting the statistics of the accumulative scores of spontaneous seizures of epilepsy model mice before and after single or multiple drug interventions ([…], 1 μM, 10 μL). The 9 lines represent 9 epilepsy model mice of the experiment, and the black arrows indicate the time of drug interventions. Accumulative scores were recorded base on the quantity and severity of spontaneous seizures: 3=Racine scale stage-5 seizure; 2=Racine scale stage-4 seizure; 1=Racine scale stage-3 seizure; accumulative score is equal to sum of scores of seizures on daily basis.
FIG. 2 is a series of line plots depicting the statistics of the accumulative scores of spontaneous seizures of epilepsy model mice before and after single or multiple drug interventions (YM022, 100 nM, 10 μL). The 5 lines represent 5 epilepsy model mice of the experiment, and the black arrows indicate the time of drug interventions.
Adult male C57 mice were housed under standard conditions, with food and water available. […] Accumulative scores were recorded base on the quantity and severity of spontaneous seizures: 3=Racine scale stage-5 seizure; 2=Racine scale stage-4 seizure; 1=Racine scale stage-3 seizure; accumulative score is equal to sum of scores of seizures on daily basis. […]

Compound | duration of the reduction of accumulative scores / seizure frequency
CNc1cccc(NC(=O)N[C@@H]2N=C(c3ccccn3)c3ccccc3N(CC(=O)C(C)(C)C)C2=O)c1 [YF476] | at least 3 days
Cc1cccc(NC(=O)N[C@@H]2N=C(c3ccccc3)c3ccccc3N(CC(=O)c3ccccc3C)C2=O)c1 [YM022] | at least 3 days

— patent US10881667B2, “Method and composition for treating epilepsy” (City University of Hong Kong, priority 2018, dated 2021)
